Values from PubChem BioAssay AID1508597 (Cure First, 2020)
Assay: 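Survival screen with siRNA in ovarian cancer cells derived from patients, with or without rucaparib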 (primary screen). Cells: human ovarian carcinoma lines grown from tumours: OCI-P5x (papillary serous) and OCI-C5x (clear cell). Knock-down reagent: siRNA pool against human genes, 1.25 pmol siRNA per well. Time to read-out: 72 h or 96 h, depending on the cell culture. Treatment: rucaparib 20 µM (about IC30) or vehicle, present until read-out. Detection: 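Luminescent ATP-based viability assay read 72 or 96 h after transfection, depending on culture, given as normalised percent viability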. Reading the numbers: viability, normalised: higher = more viable cells remaining. Hit rule: 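Active when normalised viability falls below 80 percent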. Meaning of the calls: active = viability under 80%; inactive = viability 80% or more.
The whole screen tested about 2,100 reagents; this is a random part of them. 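Calls flag viability under 80% in either arm, not effects specific to rucaparib; the reference for percent is not stated.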 Unmarked entries are inactive. A reagent listed more than once was tested more than once; the source does not tell the runs apart. No sequences are given here. Not given: the 100% reference.

no.	Gene	rucaparib or vehicle	cell line	technical replicate	viability, normalised (%)
1	SUPT16H	Rucaparib	OCI-C5x (clear cell)	1	74.4 (active)
2	SUPT16H	Rucaparib	OCI-C5x (clear cell)	1	53.2 (active)
3	SUPT16H	Rucaparib	OCI-C5x (clear cell)	2	74.1 (active)
4	SUPT16H	Rucaparib	OCI-C5x (clear cell)	2	47.6 (active)
5	SUPT16H	Rucaparib	OCI-C5x (clear cell)	3	72.4 (active)
6	SUPT16H	Rucaparib	OCI-C5x (clear cell)	3	42.8 (active)
7	SUPT16H	Rucaparib	OCI-P5x (serous)	1	45.4 (active)
8	SUPT16H	Rucaparib	OCI-P5x (serous)	1	55.2 (active)
9	SUPT16H	Rucaparib	OCI-P5x (serous)	2	71.4 (active)
10	SUPT16H	Rucaparib	OCI-P5x (serous)	2	47.1 (active)
11	SUPT16H	Rucaparib	OCI-P5x (serous)	3	45.6 (active)
12	SUPT16H	Rucaparib	OCI-P5x (serous)	3	61 (active)
13	SUPT16H	Vehicle	OCI-C5x (clear cell)	1	77.5 (active)
14	SUPT16H	Vehicle	OCI-C5x (clear cell)	1	50.5 (active)
15	SUPT16H	Vehicle	OCI-C5x (clear cell)	2	64 (active)
16	SUPT16H	Vehicle	OCI-C5x (clear cell)	2	40.7 (active)
17	SUPT16H	Vehicle	OCI-C5x (clear cell)	3	76.6 (active)
18	SUPT16H	Vehicle	OCI-C5x (clear cell)	3	46.7 (active)
19	SUPT16H	Vehicle	OCI-P5x (serous)	1	75.4 (active)
20	SUPT16H	Vehicle	OCI-P5x (serous)	1	66.7 (active)
21	SUPT16H	Vehicle	OCI-P5x (serous)	2	77.9 (active)
22	SUPT16H	Vehicle	OCI-P5x (serous)	2	58 (active)
23	SUPT16H	Vehicle	OCI-P5x (serous)	3	63.1 (active)
24	SUPT16H	Vehicle	OCI-P5x (serous)	3	64.3 (active)
25	JUNB	Rucaparib	OCI-C5x (clear cell)	1	41.4 (active)
26	JUNB	Rucaparib	OCI-C5x (clear cell)	2	36 (active)
27	JUNB	Rucaparib	OCI-C5x (clear cell)	3	55.3 (active)
28	JUNB	Rucaparib	OCI-P5x (serous)	1	75.6 (active)
29	JUNB	Rucaparib	OCI-P5x (serous)	2	64.7 (active)
30	JUNB	Rucaparib	OCI-P5x (serous)	3	70.3 (active)
31	JUNB	Vehicle	OCI-C5x (clear cell)	1	63 (active)
32	JUNB	Vehicle	OCI-C5x (clear cell)	2	73.8 (active)
33	JUNB	Vehicle	OCI-C5x (clear cell)	3	56 (active)
34	JUNB	Vehicle	OCI-P5x (serous)	1	86.2
35	JUNB	Vehicle	OCI-P5x (serous)	2	94.2
36	JUNB	Vehicle	OCI-P5x (serous)	3	137

Next part (8 carried over from the part before).
no.	Gene	rucaparib or vehicle	cell line	technical replicate	viability, normalised (%)
29	JUNB	Rucaparib	OCI-P5x (serous)	2	64.7 (active)
30	JUNB	Rucaparib	OCI-P5x (serous)	3	70.3 (active)
31	JUNB	Vehicle	OCI-C5x (clear cell)	1	63 (active)
32	JUNB	Vehicle	OCI-C5x (clear cell)	2	73.8 (active)
33	JUNB	Vehicle	OCI-C5x (clear cell)	3	56 (active)
34	JUNB	Vehicle	OCI-P5x (serous)	1	86.2
35	JUNB	Vehicle	OCI-P5x (serous)	2	94.2
36	JUNB	Vehicle	OCI-P5x (serous)	3	137
37	TADA2A	Rucaparib	OCI-C5x (clear cell)	1	86.6
38	TADA2A	Rucaparib	OCI-C5x (clear cell)	2	65.4 (active)
39	TADA2A	Rucaparib	OCI-C5x (clear cell)	3	65.9 (active)
40	TADA2A	Rucaparib	OCI-P5x (serous)	1	89.9
41	TADA2A	Rucaparib	OCI-P5x (serous)	2	102
42	TADA2A	Rucaparib	OCI-P5x (serous)	3	93.4
43	TADA2A	Vehicle	OCI-C5x (clear cell)	1	64.6 (active)
44	TADA2A	Vehicle	OCI-C5x (clear cell)	2	64.5 (active)
45	TADA2A	Vehicle	OCI-C5x (clear cell)	3	59.8 (active)
46	TADA2A	Vehicle	OCI-P5x (serous)	1	92.7
47	TADA2A	Vehicle	OCI-P5x (serous)	2	86.1
48	TADA2A	Vehicle	OCI-P5x (serous)	3	89.2
49	CDKL5	Rucaparib	OCI-C5x (clear cell)	1	65.5 (active)
50	CDKL5	Rucaparib	OCI-C5x (clear cell)	2	75.6 (active)
51	CDKL5	Rucaparib	OCI-C5x (clear cell)	3	73.6 (active)
52	CDKL5	Rucaparib	OCI-P5x (serous)	1	88.4
53	CDKL5	Rucaparib	OCI-P5x (serous)	2	94.7
54	CDKL5	Rucaparib	OCI-P5x (serous)	3	86.4
55	CDKL5	Vehicle	OCI-C5x (clear cell)	1	72.6 (active)
56	CDKL5	Vehicle	OCI-C5x (clear cell)	2	63.8 (active)
57	CDKL5	Vehicle	OCI-C5x (clear cell)	3	71.7 (active)
58	CDKL5	Vehicle	OCI-P5x (serous)	1	99.8
59	CDKL5	Vehicle	OCI-P5x (serous)	2	90.5
60	CDKL5	Vehicle	OCI-P5x (serous)	3	92.2
